Source: PubChem BioAssay AID1259308 (NCATS, 2017)
Shown is one part, drawn at random, of about 59,000 reagents tested. About 1,510 of them (2.6%) count as active. 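Calls use total luciferase alone and ignore viability, so some active siRNAs may act by altering cell number.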 Entries without a mark were called inactive. Reagents against one gene are numbered here. Not all columns of the deposit are shown. No sequences are given here.

- Screen: 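Knock-downs that increase output of a recombinant reporter protein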 (primary screen)
- System: human HEK293 embryonic kidney cells stably expressing firefly luciferase (HEK-CMV-Luc2-Hygro)
- Reagents: single siRNA against human genes, 0.8 pmol siRNA per well
- Duration: 72 h
- Measured: 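Luciferase light (ONE-Glo) measured on one replicate plate set and viability (CellTiter-Glo) on the other, scaled to a negative control siRNA, with robust z-scores and luciferase per cell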
- Scale: total luciferase, z-score: higher = more reporter protein produced
- Rule for the call: 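An siRNA counts as active if its total luciferase robust z-score exceeds 3; genes with two or more such siRNAs out of three were retested with fresh siRNAs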
- Meaning of the calls: active = raised luciferase; inactive = no rise

total luciferase, z-score, by gene and reagent
RFTN2 (raftlin family member 2): #1 0.215; #2 0.305; #3 0.247
PELI3 (pellino E3 ubiquitin protein ligase family member 3): #1 3.48 (active); #2 1.66; #3 1.47
APTX (aprataxin): #1 -1.51; #2 -0.0986; #3 -0.701
MBLAC1 (metallo-beta-lactamase domain containing 1): #1 -0.278; #2 2.21; #3 -1.73
FOXM1 (forkhead box M1): #1 -0.757; #2 -0.771; #3 1.26
IL31 (interleukin 31): #1 1.93; #2 -1.23; #3 1.06
PRKD2 (protein kinase D2): #1 -0.639; #2 0.0622; #3 0.937
PI3 (peptidase inhibitor 3): #1 1.16; #2 -2.21; #3 -0.428

Records above whose gene name starts with M or m:
total luciferase, z-score, by gene and reagent
MBLAC1 (metallo-beta-lactamase domain containing 1): #1 -0.278; #2 2.21; #3 -1.73
